This experiment has as its target centriolin (endogenous, HeLa cells) (human (endogenous in HeLa)) (UniProt Q7Z7A1). Briefly: co-IP; lysates (RIPA buffer) of HeLa cells synchronized in G0, G1, S and M phase; antibodies to centriolin at 4 °C overnight, protein A/G beads 2 h; blot with HectD1 antibodies.

The chains behind the UniProt entries cited, without tags or fusion partners.
UniProt Q7Z7A1: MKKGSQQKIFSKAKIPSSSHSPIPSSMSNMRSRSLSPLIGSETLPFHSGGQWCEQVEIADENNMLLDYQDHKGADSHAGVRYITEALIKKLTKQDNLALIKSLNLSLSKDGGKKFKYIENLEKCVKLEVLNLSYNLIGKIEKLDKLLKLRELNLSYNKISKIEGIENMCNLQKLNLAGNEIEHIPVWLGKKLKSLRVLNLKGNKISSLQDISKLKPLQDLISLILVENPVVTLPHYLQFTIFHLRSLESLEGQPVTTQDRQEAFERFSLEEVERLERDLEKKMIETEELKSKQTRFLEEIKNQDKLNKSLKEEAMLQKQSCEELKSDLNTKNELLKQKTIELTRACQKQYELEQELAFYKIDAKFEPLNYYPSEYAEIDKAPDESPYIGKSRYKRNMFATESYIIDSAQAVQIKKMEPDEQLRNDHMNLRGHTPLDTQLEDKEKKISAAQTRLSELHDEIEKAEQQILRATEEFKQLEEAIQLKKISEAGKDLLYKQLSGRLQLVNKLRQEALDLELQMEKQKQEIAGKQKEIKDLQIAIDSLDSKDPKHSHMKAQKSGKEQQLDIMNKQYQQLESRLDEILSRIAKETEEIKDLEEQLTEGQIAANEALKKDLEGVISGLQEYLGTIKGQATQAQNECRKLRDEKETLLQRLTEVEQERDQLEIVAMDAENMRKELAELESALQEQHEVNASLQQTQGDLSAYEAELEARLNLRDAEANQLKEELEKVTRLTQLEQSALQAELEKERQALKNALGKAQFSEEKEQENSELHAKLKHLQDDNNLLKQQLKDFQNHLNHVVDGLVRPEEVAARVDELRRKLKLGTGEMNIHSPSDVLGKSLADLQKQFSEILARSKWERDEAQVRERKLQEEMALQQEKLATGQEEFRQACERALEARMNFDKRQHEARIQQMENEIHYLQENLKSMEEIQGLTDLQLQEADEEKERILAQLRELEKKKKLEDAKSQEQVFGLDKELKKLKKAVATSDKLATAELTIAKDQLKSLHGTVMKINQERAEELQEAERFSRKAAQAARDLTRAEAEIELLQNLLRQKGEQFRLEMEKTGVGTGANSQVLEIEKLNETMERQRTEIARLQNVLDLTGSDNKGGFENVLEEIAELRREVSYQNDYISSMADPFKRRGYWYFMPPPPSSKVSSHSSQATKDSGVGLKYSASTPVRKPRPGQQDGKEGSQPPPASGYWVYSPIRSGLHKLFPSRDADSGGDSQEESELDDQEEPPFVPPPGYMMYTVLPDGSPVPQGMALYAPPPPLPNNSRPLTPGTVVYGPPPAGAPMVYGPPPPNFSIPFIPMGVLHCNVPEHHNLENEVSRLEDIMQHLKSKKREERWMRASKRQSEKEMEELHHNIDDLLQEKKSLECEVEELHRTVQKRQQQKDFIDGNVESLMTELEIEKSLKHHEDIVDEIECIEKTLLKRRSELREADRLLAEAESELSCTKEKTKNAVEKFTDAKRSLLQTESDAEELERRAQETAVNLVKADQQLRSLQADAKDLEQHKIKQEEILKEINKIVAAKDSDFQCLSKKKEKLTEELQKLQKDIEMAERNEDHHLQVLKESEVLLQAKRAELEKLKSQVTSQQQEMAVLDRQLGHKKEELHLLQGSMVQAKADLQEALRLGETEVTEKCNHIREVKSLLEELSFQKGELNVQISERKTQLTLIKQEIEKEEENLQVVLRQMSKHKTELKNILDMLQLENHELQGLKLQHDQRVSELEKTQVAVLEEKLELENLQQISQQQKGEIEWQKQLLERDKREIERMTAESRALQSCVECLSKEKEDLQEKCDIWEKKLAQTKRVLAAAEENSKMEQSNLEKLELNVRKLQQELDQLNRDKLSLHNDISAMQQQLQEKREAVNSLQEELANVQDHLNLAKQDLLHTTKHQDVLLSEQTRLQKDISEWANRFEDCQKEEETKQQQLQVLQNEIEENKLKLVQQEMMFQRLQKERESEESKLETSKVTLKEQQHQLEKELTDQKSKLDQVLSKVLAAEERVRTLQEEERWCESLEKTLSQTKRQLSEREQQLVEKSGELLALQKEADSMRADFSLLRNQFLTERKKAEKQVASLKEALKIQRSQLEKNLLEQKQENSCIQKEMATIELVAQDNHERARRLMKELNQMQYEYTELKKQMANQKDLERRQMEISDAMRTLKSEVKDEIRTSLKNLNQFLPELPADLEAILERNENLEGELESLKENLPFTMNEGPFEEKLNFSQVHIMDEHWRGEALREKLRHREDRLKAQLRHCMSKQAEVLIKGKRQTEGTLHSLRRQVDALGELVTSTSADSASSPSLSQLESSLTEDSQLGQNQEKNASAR
UniProt Q9ULT8: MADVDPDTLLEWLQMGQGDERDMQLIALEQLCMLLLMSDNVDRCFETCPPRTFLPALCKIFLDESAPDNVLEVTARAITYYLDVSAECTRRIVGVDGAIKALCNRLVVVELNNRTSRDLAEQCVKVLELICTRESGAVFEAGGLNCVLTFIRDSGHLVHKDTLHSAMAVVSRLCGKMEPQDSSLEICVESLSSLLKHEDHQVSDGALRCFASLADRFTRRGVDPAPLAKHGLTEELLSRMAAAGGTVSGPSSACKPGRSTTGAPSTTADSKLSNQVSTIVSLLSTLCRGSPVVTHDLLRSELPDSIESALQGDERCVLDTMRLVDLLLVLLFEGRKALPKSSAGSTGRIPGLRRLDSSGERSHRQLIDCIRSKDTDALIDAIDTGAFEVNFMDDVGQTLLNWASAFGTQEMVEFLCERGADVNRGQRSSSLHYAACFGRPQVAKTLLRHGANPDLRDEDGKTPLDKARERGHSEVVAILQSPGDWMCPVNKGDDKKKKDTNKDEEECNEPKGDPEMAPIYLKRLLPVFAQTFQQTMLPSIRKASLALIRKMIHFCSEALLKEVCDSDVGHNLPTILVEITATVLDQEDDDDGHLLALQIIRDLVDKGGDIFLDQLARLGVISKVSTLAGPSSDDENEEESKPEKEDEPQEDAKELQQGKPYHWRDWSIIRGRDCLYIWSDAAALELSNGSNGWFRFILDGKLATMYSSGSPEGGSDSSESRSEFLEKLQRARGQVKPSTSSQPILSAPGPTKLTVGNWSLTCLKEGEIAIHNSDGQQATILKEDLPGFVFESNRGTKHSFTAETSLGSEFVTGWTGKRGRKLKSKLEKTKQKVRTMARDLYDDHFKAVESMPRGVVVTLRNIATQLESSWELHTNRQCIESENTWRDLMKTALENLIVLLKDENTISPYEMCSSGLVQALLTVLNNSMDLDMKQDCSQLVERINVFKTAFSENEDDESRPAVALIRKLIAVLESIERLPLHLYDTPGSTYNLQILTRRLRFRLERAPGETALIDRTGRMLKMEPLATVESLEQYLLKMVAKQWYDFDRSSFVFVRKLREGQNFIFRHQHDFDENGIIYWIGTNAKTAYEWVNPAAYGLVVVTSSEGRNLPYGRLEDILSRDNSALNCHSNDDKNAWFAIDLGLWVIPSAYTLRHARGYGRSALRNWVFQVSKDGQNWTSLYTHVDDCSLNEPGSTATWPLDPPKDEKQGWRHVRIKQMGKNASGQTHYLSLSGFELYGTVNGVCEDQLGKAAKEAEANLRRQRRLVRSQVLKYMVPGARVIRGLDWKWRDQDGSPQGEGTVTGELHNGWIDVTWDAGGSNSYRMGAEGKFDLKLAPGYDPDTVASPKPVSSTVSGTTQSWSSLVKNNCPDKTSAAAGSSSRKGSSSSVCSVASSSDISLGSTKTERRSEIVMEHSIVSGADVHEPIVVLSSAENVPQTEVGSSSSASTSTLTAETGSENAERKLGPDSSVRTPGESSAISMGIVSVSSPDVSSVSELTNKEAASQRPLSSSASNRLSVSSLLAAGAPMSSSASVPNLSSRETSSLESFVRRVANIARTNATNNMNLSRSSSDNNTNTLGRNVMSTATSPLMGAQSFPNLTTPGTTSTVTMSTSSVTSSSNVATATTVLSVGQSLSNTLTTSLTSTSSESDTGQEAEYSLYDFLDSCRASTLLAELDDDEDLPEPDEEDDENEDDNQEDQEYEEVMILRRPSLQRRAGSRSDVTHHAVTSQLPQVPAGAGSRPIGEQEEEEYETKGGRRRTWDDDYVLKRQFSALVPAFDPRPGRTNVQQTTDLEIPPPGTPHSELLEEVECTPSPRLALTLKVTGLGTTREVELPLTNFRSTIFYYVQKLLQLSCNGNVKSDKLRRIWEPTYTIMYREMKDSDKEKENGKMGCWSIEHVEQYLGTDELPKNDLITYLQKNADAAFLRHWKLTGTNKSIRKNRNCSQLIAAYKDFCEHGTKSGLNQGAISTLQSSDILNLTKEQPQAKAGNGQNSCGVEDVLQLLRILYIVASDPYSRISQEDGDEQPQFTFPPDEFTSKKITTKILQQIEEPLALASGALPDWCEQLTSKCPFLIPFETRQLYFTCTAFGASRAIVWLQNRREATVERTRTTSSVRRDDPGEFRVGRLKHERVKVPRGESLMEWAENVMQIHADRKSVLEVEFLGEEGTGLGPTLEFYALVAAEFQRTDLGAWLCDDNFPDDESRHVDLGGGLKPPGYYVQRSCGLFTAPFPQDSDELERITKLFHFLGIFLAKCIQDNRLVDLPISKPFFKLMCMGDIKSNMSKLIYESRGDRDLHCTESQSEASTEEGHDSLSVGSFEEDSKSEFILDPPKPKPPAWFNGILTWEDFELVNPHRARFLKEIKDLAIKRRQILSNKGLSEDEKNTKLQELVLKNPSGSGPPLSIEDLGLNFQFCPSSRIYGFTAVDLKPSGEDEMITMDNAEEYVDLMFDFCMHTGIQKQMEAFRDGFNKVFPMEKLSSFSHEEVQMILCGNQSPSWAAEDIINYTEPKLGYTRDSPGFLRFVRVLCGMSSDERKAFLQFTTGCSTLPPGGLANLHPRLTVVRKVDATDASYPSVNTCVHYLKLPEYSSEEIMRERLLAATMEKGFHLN

No constants are given. Whether binding was seen depends on the method and setting. In cells and extracts the contact can be indirect. Some entries that bind do so weakly or less than the wild type.

Binding data for 1 substance are collected here from article PMC10731774.

With “HectD1 (endogenous, HeLa cells) (from UniProt Q9ULT8 1-2610)”, the binding entry is “binds”.
